According to PubChem BioAssay AID248 (DTP/NCI, 2004):
The list shows only some results of the screen, not a fair sample: it gathers some chemical classes. Not every dose and run of a compound is shown. T/C is the treated group as % of the vehicle group. Some entries give survivors of the animals treated and no T/C: the source files T/C as zero there, which appears to mark a toxic dose or a test without result, not a measured value. Some survivor counts are full or nearly so, which does not show that the dose was tolerated: survival well below the control is almost never listed, so the zero probably covers shortened survival too. Survivors were counted at the toxicity check, usually on the fifth day, unless a day is given; later deaths do not show. Schedule codes are those of the source, taken here to give the interval after Q, in days (D) or hours (H), and the number of doses after X. Some schedule codes hold Z or #, which are not explained here. Where survival is the endpoint, this PubChem deposit counts one and a half times the control or more as active, and values a quarter to a half above the control carry no call in these data; other NCI protocols may use other cut-offs. Some entries were tested several times; their values stand side by side, smallest first. Some T/C values carry the count of animals alive at the toxicity check (mostly the fifth day); without a count or a note in brackets, all were alive then. Some T/C values are marked as having no survivor count here; that says nothing about deaths at the dose.

Test system: L1210 leukemia ip in BDF1 mice, survival T/C
Test: NCI In Vivo Anticancer Drug Screen. Data for tumor model L1210 Leukemia (intraperitoneal) in B6D2F1 (BDF1) mice
Conditions: T/C endpoint: mean survival time, higher T/C = longer survival
[1] = dose: 50.0 mg/kg/injection, schedule: Q01DX009 (ip), vehicle: other
[2] = dose: 100.0 mg/kg/injection, schedule: Q01DX009 (ip), vehicle: other
[3] = dose: 100.0 mg/kg/injection, schedule: Q04DX003 (ip), vehicle: Klucel (hydroxypropylcellulose) (HPC)
[4] = dose: 180.0 mg/kg/injection, schedule: Q01DX Z (ip), vehicle: methylcellulose (MC)
[5] = dose: 200.0 mg/kg/injection, schedule: Q04DX003 (ip), vehicle: Klucel (hydroxypropylcellulose) (HPC)
[6] = dose: 200.0 mg/kg/injection, schedule: Q04DX003 (ip), vehicle: saline with Tween-80
[7] = dose: 400.0 mg/kg/injection, schedule: Q04DX003 (ip), vehicle: Klucel (hydroxypropylcellulose) (HPC)
[8] = dose: 100.0 mg/kg/injection, schedule: Q01DX009 (ip), vehicle: saline with Tween-80
[9] = dose: 200.0 mg/kg/injection, schedule: Q01DX009 (ip), vehicle: saline with Tween-80

## CCOC(=O)COc1cccc(N(CCCl)CCCl)c1
dose: 33.0 mg/kg/injection, schedule: Q01DX009 (ip), vehicle: other
  T/C: 101 % of control [5 of 6 alive]
dose: 50.0 mg/kg/injection, schedule: Q01DX001 (ip), vehicle: carboxymethylcellulose (CMC)
  T/C: 113 % of control
[1]
  T/C: 104 and 118 % of control
dose: 53.0 mg/kg/injection, schedule: Q01DX Z (ip), vehicle: methylcellulose (MC)
  T/C: 108 % of control
dose: 66.0 mg/kg/injection, schedule: Q01DX009 (ip), vehicle: other
  T/C: 119 % of control
dose: 75.0 mg/kg/injection, schedule: Q01DX009 (ip), vehicle: other
  T/C: 104 % of control
dose: 80.0 mg/kg/injection, schedule: Q01DX Z (ip), vehicle: methylcellulose (MC)
  T/C: 94 and 102 % of control
dose: 88.0 mg/kg/injection, schedule: Q04DX003 (ip), vehicle: saline with Tween-80
  T/C: 102 % of control
dose: 100.0 mg/kg/injection, schedule: Q01DX001 (ip), vehicle: carboxymethylcellulose (CMC)
  T/C: 104 % of control
[2]
  T/C: 127 % of control
  survivor count: 3 of 6
[3]
  T/C: 100 % of control
dose: 120.0 mg/kg/injection, schedule: Q01DX Z (ip), vehicle: methylcellulose (MC)
  T/C: 93 and 108 % of control [5 of 6 alive]
dose: 132.0 mg/kg/injection, schedule: Q04DX003 (ip), vehicle: saline with Tween-80
  T/C: 105 % of control
dose: 150.0 mg/kg/injection, schedule: Q01DX009 (ip), vehicle: other
  T/C: 136 % of control [5 of 6 alive]
[4]
  T/C: 117 % of control
  survivor count: 6 of 7
dose: 200.0 mg/kg/injection, schedule: Q01DX001 (ip), vehicle: carboxymethylcellulose (CMC)
  T/C: 109 % of control
dose: 200.0 mg/kg/injection, schedule: Q01DX009 (ip), vehicle: other
  T/C: 93 % of control
[5]
  T/C: 125 % of control
[6]
  T/C: 105 % of control
dose: 270.0 mg/kg/injection, schedule: Q01DX Z (ip), vehicle: methylcellulose (MC)
  survivor count: 0 of 7
dose: 300.0 mg/kg/injection, schedule: Q04DX003 (ip), vehicle: saline with Tween-80
  T/C: 117 % of control
dose: 400.0 mg/kg/injection, schedule: Q01DX001 (ip), vehicle: carboxymethylcellulose (CMC)
  T/C: 107 % of control
[7]
  survivor count: 5 of 6

## N#C/C(=C\c1ccc(N(CCBr)CCBr)cc1)C(N)=O
dose: 1.0 mg/kg/injection, schedule: Q01DX009 (ip), vehicle: Klucel (hydroxypropylcellulose) (HPC)
  T/C: 112 % of control
dose: 1.0 mg/kg/injection, schedule: Q01DX015 (ip), vehicle: carboxymethylcellulose (CMC)
  T/C: 117 % of control
dose: 1.7 mg/kg/injection, schedule: Q04DX003 (ip), vehicle: Klucel (hydroxypropylcellulose) (HPC)
  T/C: 122 % of control
dose: 2.0 mg/kg/injection, schedule: Q01DX009 (ip), vehicle: Klucel (hydroxypropylcellulose) (HPC)
  T/C: 109 % of control
dose: 2.0 mg/kg/injection, schedule: Q01DX015 (ip), vehicle: carboxymethylcellulose (CMC)
  T/C: 128 % of control
dose: 2.6 mg/kg/injection, schedule: Q04DX003 (ip), vehicle: Klucel (hydroxypropylcellulose) (HPC)
  T/C: 125 % of control
dose: 4.0 mg/kg/injection, schedule: Q01DX009 (ip), vehicle: Klucel (hydroxypropylcellulose) (HPC)
  T/C: 114 % of control [5 of 6 alive]
dose: 4.0 mg/kg/injection, schedule: Q01DX015 (ip), vehicle: carboxymethylcellulose (CMC)
  T/C: 140 % of control
dose: 4.0 mg/kg/injection, schedule: Q04DX003 (ip), vehicle: Klucel (hydroxypropylcellulose) (HPC)
  T/C: 120 % of control
dose: 6.0 mg/kg/injection, schedule: Q04DX003 (ip), vehicle: Klucel (hydroxypropylcellulose) (HPC)
  T/C: 115 % of control
dose: 8.0 mg/kg/injection, schedule: Q01DX009 (ip), vehicle: Klucel (hydroxypropylcellulose) (HPC)
  T/C: 95 % of control
dose: 8.0 mg/kg/injection, schedule: Q01DX015 (ip), vehicle: carboxymethylcellulose (CMC)
  survivor count: 3 of 6
dose: 8.0 mg/kg/injection, schedule: Q04DX003 (ip), vehicle: Klucel (hydroxypropylcellulose) (HPC)
  T/C: 127 % of control
dose: 16.0 mg/kg/injection, schedule: Q04DX003 (ip), vehicle: Klucel (hydroxypropylcellulose) (HPC)
  T/C: 119 % of control
dose: 32.0 mg/kg/injection, schedule: Q04DX003 (ip), vehicle: Klucel (hydroxypropylcellulose) (HPC)
  T/C: 90 % of control
dose: 64.0 mg/kg/injection, schedule: Q04DX003 (ip), vehicle: Klucel (hydroxypropylcellulose) (HPC)
  survivor count: 4 of 6
dose: 128.0 mg/kg/injection, schedule: Q04DX003 (ip), vehicle: Klucel (hydroxypropylcellulose) (HPC)
  survivor count: 1 of 6

## CC1(C)CC[P+](c2ccccc2)(c2ccccc2)c2ccccc21.F[P-](F)(F)(F)(F)F
dose: 12.5 mg/kg/injection, schedule: Q01DX009 (ip), vehicle: saline with Tween-80
  T/C: 108 % of control
dose: 25.0 mg/kg/injection, schedule: Q01DX009 (ip), vehicle: saline with Tween-80
  T/C: 108 % of control
dose: 50.0 mg/kg/injection, schedule: Q01DX009 (ip), vehicle: saline with Tween-80
  T/C: 100 [2 of 3 alive] and 105 % of control
[8]
  survivor count: 0 of 3
[9]
  survivor count: 0 of 3

## Cc1cc([N+](=O)[O-])ccc1[N+](=O)[O-]
dose: 25.0 mg/kg/injection, schedule: Q01DX009 (ip), vehicle: other
  T/C: 87 % of control [survivor count not shown]
dose: 25.0 mg/kg/injection, schedule: Q04DX003 (ip), vehicle: other
  T/C: 101 % of control [survivor count not shown]
[1]
  T/C: 91 % of control [survivor count not shown]
dose: 50.0 mg/kg/injection, schedule: Q04DX003 (ip), vehicle: other
  T/C: 97 % of control [survivor count not shown]
[2]
  T/C: 96 % of control [survivor count not shown]
dose: 100.0 mg/kg/injection, schedule: Q04DX003 (ip), vehicle: other
  T/C: 102 % of control [survivor count not shown]

## CC1=CC(C)(C)P(=O)(Cl)O1 (stereo not drawn)
[8]
  T/C: 100 % of control
dose: 100.0 mg/kg/injection, schedule: Q04DX003 (ip), vehicle: saline with Tween-80
  T/C: 97 % of control
[9]
  T/C: 98 % of control [5 of 6 alive]
[6]
  T/C: 97 % of control
dose: 400.0 mg/kg/injection, schedule: Q01DX009 (ip), vehicle: saline with Tween-80
  survivor count: 3 of 6
dose: 400.0 mg/kg/injection, schedule: Q04DX003 (ip), vehicle: saline with Tween-80
  T/C: 98 % of control

## ClCCN1Cc2ccccc2CCc2ccccc2C1
[3]
  T/C: 112 % of control
[5]
  T/C: 107 % of control
[7]
  survivor count: 3 of 6

## O=C1OCCN1[N+](=O)[O-]
dose: 50.0 mg/kg/injection, schedule: Q04DX002 (ip), vehicle: saline with Tween-80
  T/C: 100 [survivor count not shown] and 102 % of control [survivor count not shown]
dose: 100.0 mg/kg/injection, schedule: Q04DX002 (ip), vehicle: saline with Tween-80
  T/C: 96 [survivor count not shown], 101 [survivor count not shown], 104 % of control [survivor count not shown]
dose: 200.0 mg/kg/injection, schedule: Q04DX002 (ip), vehicle: saline with Tween-80
  T/C: 100 [survivor count not shown], 112 [survivor count not shown], 130 % of control [survivor count not shown]

## COC(=O)C1(C)COP(=O)(Cl)OC1 (stereo not drawn)
dose: 100.0 mg/kg/injection, schedule: Q01DX001 (ip), vehicle: saline
  T/C: 96 % of control
dose: 200.0 mg/kg/injection, schedule: Q01DX001 (ip), vehicle: saline
  T/C: 97 % of control
dose: 400.0 mg/kg/injection, schedule: Q01DX001 (ip), vehicle: saline
  survivor count: 4 of 6
